Source: the supplement of paper PMC10849652
Some of the results follow.

Amino acid sequences for entries named in this document (tags omitted). A change or cut given only in a name is not applied to a line headed by its entry.
UniProt Q4J6C6, whole entry, looked up: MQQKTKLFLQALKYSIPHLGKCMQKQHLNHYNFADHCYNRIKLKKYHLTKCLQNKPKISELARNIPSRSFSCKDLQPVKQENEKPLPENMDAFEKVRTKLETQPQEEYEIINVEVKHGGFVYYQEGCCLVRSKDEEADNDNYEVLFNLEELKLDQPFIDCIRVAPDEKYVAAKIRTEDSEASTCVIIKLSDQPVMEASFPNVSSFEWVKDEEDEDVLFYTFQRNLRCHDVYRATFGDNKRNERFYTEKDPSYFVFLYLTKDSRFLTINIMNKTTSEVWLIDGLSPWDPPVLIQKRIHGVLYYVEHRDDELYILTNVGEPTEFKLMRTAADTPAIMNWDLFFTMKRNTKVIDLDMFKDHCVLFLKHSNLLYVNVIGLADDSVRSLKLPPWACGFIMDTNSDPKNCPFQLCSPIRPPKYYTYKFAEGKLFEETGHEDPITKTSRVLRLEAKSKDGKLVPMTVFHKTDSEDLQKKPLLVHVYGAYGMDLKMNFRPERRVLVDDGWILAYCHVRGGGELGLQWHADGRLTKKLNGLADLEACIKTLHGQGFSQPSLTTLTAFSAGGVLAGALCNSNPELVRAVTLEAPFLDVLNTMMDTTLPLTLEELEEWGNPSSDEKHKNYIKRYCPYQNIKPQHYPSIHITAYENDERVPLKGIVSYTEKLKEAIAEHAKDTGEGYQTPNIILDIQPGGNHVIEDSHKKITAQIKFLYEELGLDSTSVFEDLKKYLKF
UniProt O43741: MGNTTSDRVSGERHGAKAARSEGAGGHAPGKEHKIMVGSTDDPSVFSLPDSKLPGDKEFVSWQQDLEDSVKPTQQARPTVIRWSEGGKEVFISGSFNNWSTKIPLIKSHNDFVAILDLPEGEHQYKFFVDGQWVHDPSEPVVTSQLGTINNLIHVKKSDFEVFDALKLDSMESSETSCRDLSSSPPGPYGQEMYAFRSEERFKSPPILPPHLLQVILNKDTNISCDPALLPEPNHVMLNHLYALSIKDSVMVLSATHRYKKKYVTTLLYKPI
UniProt Q8NAV1: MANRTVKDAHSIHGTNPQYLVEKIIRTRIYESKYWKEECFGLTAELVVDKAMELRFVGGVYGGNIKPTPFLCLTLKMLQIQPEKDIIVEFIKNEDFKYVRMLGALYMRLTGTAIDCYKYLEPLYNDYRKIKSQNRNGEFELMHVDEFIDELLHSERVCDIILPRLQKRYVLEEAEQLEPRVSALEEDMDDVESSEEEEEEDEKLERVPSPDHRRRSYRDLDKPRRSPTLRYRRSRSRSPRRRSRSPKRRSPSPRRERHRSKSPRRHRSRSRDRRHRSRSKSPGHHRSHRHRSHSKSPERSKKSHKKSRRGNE
UniProt Q9UMR5: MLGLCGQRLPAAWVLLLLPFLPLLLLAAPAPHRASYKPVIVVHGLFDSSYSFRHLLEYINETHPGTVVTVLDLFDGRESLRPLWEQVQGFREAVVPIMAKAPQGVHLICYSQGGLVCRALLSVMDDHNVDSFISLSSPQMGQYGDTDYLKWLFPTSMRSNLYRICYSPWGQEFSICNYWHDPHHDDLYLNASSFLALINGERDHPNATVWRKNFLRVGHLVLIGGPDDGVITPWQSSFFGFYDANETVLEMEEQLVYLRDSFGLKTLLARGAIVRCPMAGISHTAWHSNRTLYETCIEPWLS
UniProt P31323, whole entry, looked up: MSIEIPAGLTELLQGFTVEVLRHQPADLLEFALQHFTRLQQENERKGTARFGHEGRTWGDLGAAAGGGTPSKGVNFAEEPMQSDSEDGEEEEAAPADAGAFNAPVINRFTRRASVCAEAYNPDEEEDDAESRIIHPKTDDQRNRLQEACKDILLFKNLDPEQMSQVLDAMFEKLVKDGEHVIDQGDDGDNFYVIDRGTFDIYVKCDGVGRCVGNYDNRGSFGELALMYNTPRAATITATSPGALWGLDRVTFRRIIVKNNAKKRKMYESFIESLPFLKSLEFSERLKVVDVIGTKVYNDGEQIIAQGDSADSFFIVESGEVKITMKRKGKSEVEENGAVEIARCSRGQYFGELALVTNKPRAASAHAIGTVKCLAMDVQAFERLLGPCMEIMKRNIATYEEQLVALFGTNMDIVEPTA
UniProt Q9BZL6: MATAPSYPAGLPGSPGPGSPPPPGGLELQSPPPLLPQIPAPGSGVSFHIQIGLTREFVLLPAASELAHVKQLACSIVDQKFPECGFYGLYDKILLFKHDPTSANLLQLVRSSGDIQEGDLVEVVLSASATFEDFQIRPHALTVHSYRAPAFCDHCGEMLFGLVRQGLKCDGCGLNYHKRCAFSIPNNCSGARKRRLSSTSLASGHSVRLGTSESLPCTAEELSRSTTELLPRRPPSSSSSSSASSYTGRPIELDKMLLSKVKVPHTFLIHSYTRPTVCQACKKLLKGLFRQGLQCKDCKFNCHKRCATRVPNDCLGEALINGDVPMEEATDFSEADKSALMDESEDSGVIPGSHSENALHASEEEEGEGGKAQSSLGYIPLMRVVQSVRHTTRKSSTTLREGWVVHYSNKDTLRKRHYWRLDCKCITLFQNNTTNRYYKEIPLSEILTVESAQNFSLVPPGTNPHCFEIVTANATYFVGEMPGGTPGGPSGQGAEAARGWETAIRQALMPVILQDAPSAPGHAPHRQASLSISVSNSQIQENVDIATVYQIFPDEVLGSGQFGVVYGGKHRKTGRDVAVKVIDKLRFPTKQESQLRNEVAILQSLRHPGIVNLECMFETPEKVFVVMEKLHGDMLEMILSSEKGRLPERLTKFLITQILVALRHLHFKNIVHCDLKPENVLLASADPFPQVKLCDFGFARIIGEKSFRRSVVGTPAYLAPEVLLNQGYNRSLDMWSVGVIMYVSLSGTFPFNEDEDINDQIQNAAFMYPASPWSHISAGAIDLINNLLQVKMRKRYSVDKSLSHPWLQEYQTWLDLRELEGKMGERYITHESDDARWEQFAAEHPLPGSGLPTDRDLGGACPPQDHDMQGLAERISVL
UniProt P54619: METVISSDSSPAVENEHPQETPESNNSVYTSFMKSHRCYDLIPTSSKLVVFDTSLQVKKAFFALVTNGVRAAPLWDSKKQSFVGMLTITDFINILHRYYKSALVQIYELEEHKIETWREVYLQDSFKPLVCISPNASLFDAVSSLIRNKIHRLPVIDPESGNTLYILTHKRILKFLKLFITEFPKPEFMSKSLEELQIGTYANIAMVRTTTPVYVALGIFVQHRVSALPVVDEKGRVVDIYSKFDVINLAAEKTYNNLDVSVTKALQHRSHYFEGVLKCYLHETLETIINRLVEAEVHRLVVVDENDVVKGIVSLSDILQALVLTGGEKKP
UniProt O60256: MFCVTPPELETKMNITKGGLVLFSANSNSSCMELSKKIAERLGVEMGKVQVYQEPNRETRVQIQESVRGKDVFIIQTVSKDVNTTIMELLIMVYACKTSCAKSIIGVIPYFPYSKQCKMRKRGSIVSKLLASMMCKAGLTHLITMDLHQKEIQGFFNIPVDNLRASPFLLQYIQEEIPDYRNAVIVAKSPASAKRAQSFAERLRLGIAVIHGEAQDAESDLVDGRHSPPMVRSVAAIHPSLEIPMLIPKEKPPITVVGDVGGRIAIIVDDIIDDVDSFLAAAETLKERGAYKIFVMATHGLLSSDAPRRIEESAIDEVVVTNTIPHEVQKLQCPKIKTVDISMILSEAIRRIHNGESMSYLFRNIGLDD
UniProt P50336: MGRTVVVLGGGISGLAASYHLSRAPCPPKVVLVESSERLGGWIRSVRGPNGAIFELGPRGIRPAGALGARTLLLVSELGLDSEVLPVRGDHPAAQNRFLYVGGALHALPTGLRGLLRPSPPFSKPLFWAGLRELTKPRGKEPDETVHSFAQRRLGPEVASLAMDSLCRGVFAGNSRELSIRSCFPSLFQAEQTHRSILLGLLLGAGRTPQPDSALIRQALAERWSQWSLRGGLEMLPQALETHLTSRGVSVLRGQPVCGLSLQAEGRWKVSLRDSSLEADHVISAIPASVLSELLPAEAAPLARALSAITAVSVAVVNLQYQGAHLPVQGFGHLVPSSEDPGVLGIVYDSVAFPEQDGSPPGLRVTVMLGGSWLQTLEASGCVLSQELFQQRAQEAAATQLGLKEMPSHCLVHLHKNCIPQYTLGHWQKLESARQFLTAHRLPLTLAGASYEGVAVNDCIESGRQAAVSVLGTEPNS
UniProt Q9NR22, whole entry, looked up: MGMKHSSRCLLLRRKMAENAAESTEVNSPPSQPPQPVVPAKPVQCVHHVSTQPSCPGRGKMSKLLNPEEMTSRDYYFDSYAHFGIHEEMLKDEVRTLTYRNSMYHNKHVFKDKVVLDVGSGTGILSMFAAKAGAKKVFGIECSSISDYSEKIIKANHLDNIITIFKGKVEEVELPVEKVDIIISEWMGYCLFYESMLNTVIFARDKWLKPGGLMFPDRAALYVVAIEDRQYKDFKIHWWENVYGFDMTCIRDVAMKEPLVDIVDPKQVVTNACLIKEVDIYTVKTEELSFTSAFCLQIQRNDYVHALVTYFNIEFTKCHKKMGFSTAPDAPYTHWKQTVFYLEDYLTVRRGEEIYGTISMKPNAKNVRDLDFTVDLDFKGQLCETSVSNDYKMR
UniProt P50897: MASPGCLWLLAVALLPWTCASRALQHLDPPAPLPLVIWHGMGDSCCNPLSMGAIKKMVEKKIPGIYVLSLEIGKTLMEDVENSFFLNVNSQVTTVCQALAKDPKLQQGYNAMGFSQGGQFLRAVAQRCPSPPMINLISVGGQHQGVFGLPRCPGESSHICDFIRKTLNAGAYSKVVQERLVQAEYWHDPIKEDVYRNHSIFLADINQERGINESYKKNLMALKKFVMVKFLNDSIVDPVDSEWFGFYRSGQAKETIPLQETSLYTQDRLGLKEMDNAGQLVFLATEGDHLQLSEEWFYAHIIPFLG
UniProt P31321, whole entry, looked up: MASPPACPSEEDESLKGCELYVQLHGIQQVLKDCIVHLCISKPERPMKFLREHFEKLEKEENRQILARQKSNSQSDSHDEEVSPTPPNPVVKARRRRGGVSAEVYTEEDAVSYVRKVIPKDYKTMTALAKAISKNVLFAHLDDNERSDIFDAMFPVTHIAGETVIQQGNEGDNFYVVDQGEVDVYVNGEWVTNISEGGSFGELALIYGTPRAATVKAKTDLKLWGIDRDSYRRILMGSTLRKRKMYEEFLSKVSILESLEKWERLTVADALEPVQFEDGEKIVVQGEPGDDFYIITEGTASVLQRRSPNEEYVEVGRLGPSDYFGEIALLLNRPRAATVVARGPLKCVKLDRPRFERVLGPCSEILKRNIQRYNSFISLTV
UniProt O75400: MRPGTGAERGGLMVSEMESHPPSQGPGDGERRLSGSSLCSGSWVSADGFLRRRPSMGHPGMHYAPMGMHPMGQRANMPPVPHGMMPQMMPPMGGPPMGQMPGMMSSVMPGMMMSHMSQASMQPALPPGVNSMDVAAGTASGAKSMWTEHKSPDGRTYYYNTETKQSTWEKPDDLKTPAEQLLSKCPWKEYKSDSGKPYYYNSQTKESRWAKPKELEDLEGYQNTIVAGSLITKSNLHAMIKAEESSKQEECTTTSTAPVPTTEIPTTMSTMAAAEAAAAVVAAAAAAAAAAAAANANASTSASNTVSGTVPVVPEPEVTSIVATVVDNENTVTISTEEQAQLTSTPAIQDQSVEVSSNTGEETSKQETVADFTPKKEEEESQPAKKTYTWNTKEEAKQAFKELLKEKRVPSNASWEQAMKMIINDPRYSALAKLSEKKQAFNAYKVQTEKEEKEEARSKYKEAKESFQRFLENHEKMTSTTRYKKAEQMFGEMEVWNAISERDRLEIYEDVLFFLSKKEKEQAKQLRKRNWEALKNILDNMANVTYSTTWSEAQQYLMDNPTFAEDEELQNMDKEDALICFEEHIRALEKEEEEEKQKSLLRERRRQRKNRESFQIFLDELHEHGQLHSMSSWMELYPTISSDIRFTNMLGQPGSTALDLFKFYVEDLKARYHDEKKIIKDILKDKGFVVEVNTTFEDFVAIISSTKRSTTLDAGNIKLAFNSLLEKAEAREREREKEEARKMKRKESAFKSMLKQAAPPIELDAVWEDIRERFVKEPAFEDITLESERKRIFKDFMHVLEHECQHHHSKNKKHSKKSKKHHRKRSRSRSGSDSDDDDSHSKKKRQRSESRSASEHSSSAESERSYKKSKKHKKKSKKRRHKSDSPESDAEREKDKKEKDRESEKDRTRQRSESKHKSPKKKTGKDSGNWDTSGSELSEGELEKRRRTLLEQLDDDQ
UniProt Q16537, whole entry, looked up: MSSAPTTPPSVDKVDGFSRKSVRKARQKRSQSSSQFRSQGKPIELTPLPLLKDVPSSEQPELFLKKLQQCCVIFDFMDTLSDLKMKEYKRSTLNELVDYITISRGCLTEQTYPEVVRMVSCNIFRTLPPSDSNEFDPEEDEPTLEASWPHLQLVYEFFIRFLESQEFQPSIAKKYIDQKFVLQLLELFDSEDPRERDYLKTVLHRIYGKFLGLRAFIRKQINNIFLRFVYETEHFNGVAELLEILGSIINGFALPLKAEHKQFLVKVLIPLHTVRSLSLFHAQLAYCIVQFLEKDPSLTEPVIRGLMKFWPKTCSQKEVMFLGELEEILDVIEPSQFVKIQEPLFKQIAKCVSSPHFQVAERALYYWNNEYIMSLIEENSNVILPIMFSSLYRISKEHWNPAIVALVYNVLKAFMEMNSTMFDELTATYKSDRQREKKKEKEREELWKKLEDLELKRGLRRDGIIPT

Experiments:
Experiment in all cases: log2 fold change, soluble protein after heating vs DMSO (PISA); higher = thermal stabilisation; K562 cells, 10 uM, 30 min; active = over 0.2 and 3.5 SD of the protein, either way, in both replicates (recomputed)
[1] = compound: COC1=CC=C(C=C1)CN2C=CC3=C2C=C(C=C3)C(=O)NO
In short: (§1)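 Aliquots of K562 cells (2×10^6 cells/mL) treated with 10 μM compound for 30 min were heated for 3 min over 48°C-58°C. After pooling and extraction in PBS with 0.5% NP-40 at 4°C, soluble protein from a 21,000xg, 90 min spin was quantified by TMTpro 16plex LC-MS/MS with channel sums equalised. Thermal stability is expressed against control samples, from duplicates, as a log2 fold change.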

filanesib = compound: CON(C)C(=O)N1N=C(c2cc(F)ccc2F)S[C@@]1(CCCN)c1ccccc1 [filanesib]
In short: as §1

zotarolimus = compound: CO[C@H]1C[C@@H]2CC[C@@H](C)[C@@](O)(O2)C(=O)C(=O)N2CCCC[C@H]2C(=O)O[C@H]([C@H](C)C[C@@H]2CC[C@H](n3cnnn3)[C@H](OC)C2)CC(=O)[C@H](C)/C=C(\C)[C@@H](O)[C@@H](OC)C(=O)[C@H](C)C[C@H](C)/C=C/C=C/C=C/1C [zotarolimus]
In short: as §1

idasanutlin = compound: COc1cc(C(=O)O)ccc1NC(=O)[C@@H]1N[C@@H](CC(C)(C)C)[C@](C#N)(c2ccc(Cl)cc2F)[C@H]1c1cccc(Cl)c1F [idasanutlin]
In short: as §1

alisertib = compound: COc1cc(Nc2ncc3c(n2)-c2ccc(Cl)cc2C(c2c(F)cccc2OC)=NC3)ccc1C(=O)O [alisertib]
In short: as §1

[2] = compound: COc1cc2nc(-c3cc(F)ccc3O)nc(N[C@@H]3CNC[C@H]3C(C)(C)O)c2cc1OC
In short: as §1

gefitinib = compound: COc1cc2ncnc(Nc3ccc(F)c(Cl)c3)c2cc1OCCCN1CCOCC1 [gefitinib]
In short: as §1

[3] = compound: COc1cccc2cc(-c3nc([C@H]4CC[C@H](C(=O)O)CC4)n4ncnc(N)c34)[nH]c12
In short: as §1

lapatinib = compound: CS(=O)(=O)CCNCc1ccc(-c2ccc3ncnc(Nc4ccc(OCc5cccc(F)c5)c(Cl)c4)c3c2)o1 [lapatinib]
In short: as §1

pictilisib = compound: CS(=O)(=O)N1CCN(Cc2cc3nc(-c4cccc5[nH]ncc45)nc(N4CCOCC4)c3s2)CC1 [pictilisib]
In short: as §1

[4] = compound: CS(=O)(=O)c1ccc(-c2cnc(N)c(C(=O)Nc3ccccc3)n2)cc1
In short: as §1

crizotinib = compound: C[C@@H](Oc1cc(-c2cnn(C3CCNCC3)c2)cnc1N)c1c(Cl)ccc(F)c1Cl [crizotinib]
In short: as §1

[5] = compound: C[C@@H]1COCCN1C2=NC(=NC(=C2)C3(CC3)S(=O)(=O)C)C4=C5C=CNC5=CC=C4
In short: as §1

[6] = compound: C[C@H](C1=CC=C(C=C1)C(=O)NC2=C3C=CNC3=NC=C2)N
In short: as §1

duvelisib = compound: C[C@H](Nc1ncnc2nc[nH]c12)c1cc2cccc(Cl)c2c(=O)n1-c1ccccc1 [duvelisib]
In short: as §1

gandotinib = compound: Cc1cc(Nc2cc(CN3CCOCC3)c3nc(C)c(Cc4ccc(Cl)cc4F)n3n2)n[nH]1 [gandotinib]
In short: as §1

tozasertib = compound: Cc1cc(Nc2cc(N3CCN(C)CC3)nc(Sc3ccc(NC(=O)C4CC4)cc3)n2)n[nH]1 [tozasertib]
In short: as §1

[7] = compound: Cc1cc(SCc2sc(-c3ccc(C(F)(F)F)cc3)nc2C)ccc1OCC(=O)O
In short: as §1

doramapimod = compound: Cc1ccc(-n2nc(C(C)(C)C)cc2NC(=O)Nc2ccc(OCCN3CCOCC3)c3ccccc23)cc1 [doramapimod]
In short: as §1

ispinesib = compound: Cc1ccc(C(=O)N(CCCN)[C@@H](c2nc3cc(Cl)ccc3c(=O)n2Cc2ccccc2)C(C)C)cc1 [ispinesib]
In short: as §1

| Target | log2 fold change [1] | log2 fold change (filanesib) | log2 fold change (zotarolimus) | log2 fold change (idasanutlin) | log2 fold change (alisertib) | log2 fold change [2] | log2 fold change (gefitinib) | log2 fold change [3] | log2 fold change (lapatinib) | log2 fold change (pictilisib) | log2 fold change [4] | log2 fold change (crizotinib) | log2 fold change [5] | log2 fold change [6] | log2 fold change (duvelisib) | log2 fold change (gandotinib) | log2 fold change (tozasertib) | log2 fold change [7] | log2 fold change (doramapimod) | log2 fold change (ispinesib) |
| --- | --- | --- | --- | --- | --- | --- | --- | --- | --- | --- | --- | --- | --- | --- | --- | --- | --- | --- | --- | --- |
| PREPL (UniProt Q4J6C6) | inactive: -0.043 | inactive: -0.005 | inactive: -0.06 | inactive: -0.024 | inactive: -0.03 | inactive: 0.034 | inactive: 0.01 | inactive: 0.072 | inactive: 0.018 | inactive: 0.062 | inactive: 0.059 | inactive: -0.031 | inactive: 0.059 | inactive: -0.041 | inactive: 0.029 | inactive: -0.078 | inactive: -0.047 | inactive: 0.055 | inactive: 0.023 | inactive: 0.002 |
| PPP6R1 (UniProt Q9UPN7) | inactive: -0.002 | inactive: -0.072 | inactive: -0.005 | inactive: -0.032 | inactive: -0.098 | inactive: -0.055 | inactive: 0.012 | inactive: 0.014 | inactive: 0.016 | inactive: 0 | inactive: -0.013 | inactive: -0.018 | inactive: 0.125 | inactive: 0.012 |  | inactive: -0.078 |  | inactive: -0.01 | inactive: 0.01 | inactive: -0.002 |
| PRKAB2 (UniProt O43741) | inactive: 0.038 | inactive: -0.167 | inactive: 0.109 | inactive: 0.14 | inactive: 0.053 | inactive: -0.074 | inactive: 0.004 | inactive: 0.057 | inactive: 0.131 | inactive: 0.111 | inactive: -0.08 | inactive: -0.245 | inactive: 0.021 | inactive: -0.231 |  | active: -0.484 |  | inactive: 0.051 | inactive: -0.041 | inactive: 0.143 |
| PRPF38A (UniProt Q8NAV1) | inactive: -0.113 | inactive: 0.046 | inactive: -0.014 | inactive: 0.035 | inactive: -0.033 | inactive: 0.041 | inactive: 0.009 | inactive: 0.002 | inactive: -0.035 | inactive: 0.085 | inactive: -0.029 | inactive: 0.018 | inactive: 0.017 | inactive: 0.009 |  | inactive: -0.042 |  | inactive: 0.017 | inactive: 0.006 | inactive: -0.024 |
| PRKCA (UniProt P17252) | inactive: -0.005 | inactive: -0.066 | inactive: 0.008 | inactive: 0.01 | inactive: -0.019 | inactive: 0.057 | inactive: -0.002 | inactive: 0.017 | inactive: -0.027 | inactive: 0.055 | inactive: -0.023 | inactive: -0.081 | inactive: 0.044 | inactive: -0.041 |  | inactive: -0.227 |  | inactive: 0.232 | inactive: 0.01 | inactive: -0.112 |
| PPT2 isoform 3 (UniProt Q9UMR5) | inactive: 0.052 | inactive: 0.008 | inactive: -0.019 | inactive: -0.082 | inactive: -0.114 | inactive: -0.029 | inactive: -0.004 | inactive: 0.093 | inactive: 0.035 | inactive: 0.024 | inactive: 0.074 | inactive: -0.182 | inactive: -0.021 | inactive: -0.148 |  | inactive: 0.001 |  | inactive: -0.069 | inactive: 0.006 | inactive: -0.041 |
| PRKAR2B (UniProt P31323) | inactive: -0.032 | inactive: 0.06 | inactive: 0.153 | inactive: 0.05 | inactive: -0.007 | active: -0.63 | inactive: -0.026 | inactive: -0.024 | inactive: 0.048 | inactive: -0.056 | inactive: -0.026 | inactive: -0.108 | inactive: -0.067 | inactive: -0.136 |  | inactive: -0.271 |  | inactive: 0.112 | inactive: 0.073 | inactive: -0.001 |
| PRKD2 isoform 3 (UniProt Q9BZL6) | inactive: -0.05 | inactive: -0.037 | inactive: -0.125 | inactive: 0.078 | inactive: -0.03 | inactive: -0.042 | inactive: -0.159 | inactive: 0.033 | inactive: -0.011 | inactive: -0.17 | inactive: -0.275 | inactive: -0.39 | inactive: 0.108 | inactive: -0.111 |  | inactive: 0.017 |  | inactive: -0.014 | inactive: 0.023 | inactive: -0.129 |
| PRKAG1 isoform 3 (UniProt P54619) | inactive: -0.02 | inactive: -0.036 | inactive: 0 | inactive: -0.004 | inactive: 0.022 | inactive: 0.008 | inactive: 0.002 | inactive: 0.049 | inactive: -0.055 | inactive: -0.037 | inactive: -0.01 | inactive: -0.114 | inactive: 0.006 | inactive: -0.023 |  | inactive: -0.249 |  | inactive: 0.004 | inactive: -0.003 | inactive: -0.018 |
| PRKACB isoform 2 (UniProt P22694) | inactive: -0.045 | inactive: -0.098 | inactive: 0.021 | inactive: -0.01 | inactive: -0.037 | inactive: 0.124 | inactive: 0.015 | inactive: 0.03 | inactive: -0.018 | inactive: -0.018 | inactive: -0.009 | inactive: -0.145 | inactive: 0.033 | inactive: -0.039 |  | inactive: -0.091 |  | inactive: 0.047 | inactive: 0.028 | inactive: -0.043 |
| PPM1G (UniProt O15355) | inactive: -0.011 | inactive: 0.014 | inactive: 0.028 | inactive: 0.066 | inactive: 0.019 | inactive: 0.081 | inactive: 0.044 | inactive: -0.089 | inactive: -0.052 | inactive: 0.093 | inactive: 0.114 | inactive: -0.028 | inactive: 0.045 | inactive: -0.083 |  | inactive: -0.026 |  | inactive: 0.171 | inactive: -0.008 | inactive: -0.055 |
| PRPSAP2 (UniProt O60256) | inactive: -0.168 | inactive: 0.084 | inactive: 0.029 | inactive: 0.012 | inactive: -0.078 | inactive: 0.011 | inactive: -0.022 | inactive: 0.025 | inactive: -0.011 | active: -0.233 | inactive: 0 | inactive: 0.01 | inactive: 0.112 | inactive: -0.016 |  | inactive: 0.114 |  | inactive: 0.023 | inactive: -0.007 | inactive: 0.012 |
| PPOX (UniProt P50336) | inactive: 0.324 | inactive: -0.226 | inactive: 0.352 | active: 0.574 | inactive: 0.033 | inactive: -0.178 | inactive: 0.116 | inactive: 0.021 | inactive: 0.471 | inactive: 0.475 | inactive: 0.173 | inactive: -0.197 | inactive: 0.128 | inactive: -0.077 |  | inactive: 0.427 |  | inactive: 0.091 | inactive: 0.378 | inactive: 0.02 |
| PRMT8 (UniProt Q9NR22) | inactive: -0.143 | inactive: -0.162 | inactive: -0.014 | inactive: -0.109 | inactive: -0.028 | inactive: -0.019 | inactive: 0.002 | inactive: 0.042 | inactive: 0.145 | inactive: 0.025 | inactive: -0.046 | inactive: -0.03 | inactive: -0.043 | inactive: 0.024 |  | inactive: -0.047 |  | inactive: 0.045 | inactive: -0.021 | inactive: 0.13 |
| PPT1 (UniProt P50897) | inactive: 0.021 | active: -0.241 | inactive: -0.043 | inactive: 0.005 | inactive: -0.041 | inactive: -0.041 | inactive: -0.03 | inactive: 0.074 | inactive: -0.038 | inactive: 0.052 | inactive: 0.022 | active: -0.57 | inactive: -0.008 | inactive: -0.029 |  | inactive: -0.018 |  | inactive: 0.023 | inactive: -0.004 | active: -0.394 |
| PRKAR1B (UniProt P31321) | inactive: 0.1 | inactive: 0.034 | inactive: 0.011 | inactive: -0.099 | inactive: 0.02 | inactive: 0.027 | inactive: 0.051 | inactive: -0.162 | inactive: 0.004 | inactive: 0.199 | inactive: 0.137 | inactive: 0.132 | inactive: 0.071 | inactive: 0.123 |  | inactive: 0.095 |  | inactive: -0.011 | inactive: -0.03 | inactive: -0.072 |
| PRPF40A (UniProt O75400) | inactive: 0.082 | inactive: 0.135 | inactive: 0.029 | inactive: 0.058 | inactive: 0.024 | inactive: -0.091 | inactive: 0.042 | inactive: -0.045 | inactive: 0.018 | inactive: -0.027 | inactive: -0.023 | inactive: 0.071 | inactive: 0.105 | inactive: -0.061 |  | inactive: -0.04 |  | inactive: 0.104 | inactive: 0.021 | inactive: -0.034 |
| PPP2R5E (UniProt Q16537) | inactive: -0.044 | inactive: -0.056 | inactive: -0.009 | inactive: -0.191 | inactive: -0.024 | inactive: 0.205 | inactive: 0.002 | inactive: 0.033 | inactive: -0.024 | inactive: -0.118 | inactive: -0.024 | inactive: -0.15 | inactive: 0.037 | inactive: 0.105 |  | inactive: 0.167 |  | inactive: 0.015 | inactive: -0.01 | inactive: -0.024 |

In another format: results already given
Target | log2 fold change [1] | log2 fold change (filanesib) | log2 fold change (zotarolimus) | log2 fold change (idasanutlin) | log2 fold change (alisertib) | log2 fold change [2] | log2 fold change (gefitinib) | log2 fold change [3] | log2 fold change (lapatinib) | log2 fold change (pictilisib) | log2 fold change [4] | log2 fold change (crizotinib) | log2 fold change [5] | log2 fold change [6] | log2 fold change (duvelisib) | log2 fold change (gandotinib) | log2 fold change (tozasertib) | log2 fold change [7] | log2 fold change (doramapimod) | log2 fold change (ispinesib)
PRKAG1 isoform 3 (UniProt P54619) | inactive: -0.02 | inactive: -0.036 | inactive: 0 | inactive: -0.004 | inactive: 0.022 | inactive: 0.008 | inactive: 0.002 | inactive: 0.049 | inactive: -0.055 | inactive: -0.037 | inactive: -0.01 | inactive: -0.114 | inactive: 0.006 | inactive: -0.023 |  | inactive: -0.249 |  | inactive: 0.004 | inactive: -0.003 | inactive: -0.018
PPP2R5E (UniProt Q16537) | inactive: -0.044 | inactive: -0.056 | inactive: -0.009 | inactive: -0.191 | inactive: -0.024 | inactive: 0.205 | inactive: 0.002 | inactive: 0.033 | inactive: -0.024 | inactive: -0.118 | inactive: -0.024 | inactive: -0.15 | inactive: 0.037 | inactive: 0.105 |  | inactive: 0.167 |  | inactive: 0.015 | inactive: -0.01 | inactive: -0.024
